Measured values: the supplement of paper PMC10331698
± gives the standard deviation of the averaged measurements. Most entries show no effect beyond the scatter of the controls.

Columns and labels:
Test in all cases: level (log10 ratio to DMSO vehicle control); higher = higher biomarker level / cell amount than vehicle control
[1] = compound: C=C(C)C(=O)OCC(F)(F)C(F)(F)C(F)(F)F [2,2,3,3,4,4,4-Heptafluorobutyl methacrylate]; conditions: 2200 nM; in DMSO
Procedure: (§1)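 BioMAP Diversity Plus panel of 12 human primary cell co-culture systems (3C, 4H, LPS, SAg, BT, BF4T, BE3C, CASM3C, HDF3CGF, KF3CT, MyoF, Mphg). Compounds were added 1 h before stimulation and left for 24 h (MyoF 48 h; BT 72 h for soluble read-outs or 6 d for IgG). Biomarkers were read by ELISA, cytotoxicity by SRB, PBMC viability and proliferation by Alamar Blue. Each well value was divided by the mean of 8 DMSO control wells on the same plate and log10 transformed; duplicate blinded samples were tested at 4 concentrations.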

[2] = compound: C=CC(=O)OCC(F)(F)C(F)(F)C(F)(F)C(F)(F)COC(=O)C=C [1H,1H,6H,6H-Perfluorohexane-1,6-diol diacrylate]; conditions: 2200 nM; in DMSO
Procedure: as §1

[3] = compound: FC(F)(F)C(F)(F)C(F)(F)C(F)(F)C(F)(F)C(F)(F)C(F)(F)CCI [1-Iodo-1H,1H,2H,2H-perfluorononane]; conditions: in DMSO
Procedure: as §1

[4] = compound: FC(F)(F)C(F)(F)C(F)(F)C(F)(F)C(F)(F)C(F)(F)C(F)(F)I [1-Iodopentadecafluoroheptane]; conditions: in DMSO
Procedure: as §1

[5] = compound: FC(F)C(F)(F)COCC1CO1 [((2,2,3,3-Tetrafluoropropoxy)methyl)oxirane]; conditions: 2200 nM; in DMSO
Procedure: as §1

Perfluorooctanamide = compound: NC(=O)C(F)(F)C(F)(F)C(F)(F)C(F)(F)C(F)(F)C(F)(F)C(F)(F)F [Perfluorooctanamide]; conditions: 2200 nM; in DMSO
Procedure: as §1

Perfluoroundecanoic acid = compound: O=C(O)C(F)(F)C(F)(F)C(F)(F)C(F)(F)C(F)(F)C(F)(F)C(F)(F)C(F)(F)C(F)(F)C(F)(F)F [Perfluoroundecanoic acid]; conditions: in DMSO
Procedure: as §1

[6] = compound: O=C(O)C(F)(F)C(F)(F)C(F)(F)C(F)(F)C(F)(F)C(F)(F)C(F)(F)C(F)F [9-H-Perfluorononanoic acid]; conditions: 2200 nM; in DMSO
Procedure: as §1

Perfluorobutanoic acid = compound: O=C(O)C(F)(F)C(F)(F)C(F)(F)F [Perfluorobutanoic acid]; conditions: 2200 nM; in DMSO
Procedure: as §1

Perfluoropropanoic acid = compound: O=C(O)C(F)(F)C(F)(F)F [Perfluoropropanoic acid]; conditions: 2200 nM; in DMSO
Procedure: as §1

[7] = compound: O=C(O)C(F)(F)C(F)(F)OC(F)(F)F [Perfluoro-3-methoxypropanoic acid]; conditions: 2200 nM; in DMSO
Procedure: as §1

[8] = compound: O=C(O)C(F)(F)OC(F)(F)C(F)(F)OC(F)(F)C(=O)O [Perfluoro-3,6-dioxaoctane-1,8-dioic acid]; conditions: 2200 nM; in DMSO
Procedure: as §1

[9] = compound: O=C(O)C(F)(F)OC(F)(F)C(F)(F)OC(F)(F)C(F)(F)C(F)(F)C(F)(F)F [Perfluoro-3,6-dioxadecanoic acid]; conditions: 2200 nM; in DMSO
Procedure: as §1

[10] = compound: O=C(O)C=CC(F)(C(F)(F)F)C(F)(F)F [3-(Perfluoroisopropyl)-2-propenoic acid]; conditions: in DMSO
Procedure: as §1

[11] = compound: O=P(O)(O)CCC(F)(F)C(F)(F)C(F)(F)C(F)(F)C(F)(F)C(F)(F)C(F)(F)C(F)(F)F [((Perfluorooctyl)ethyl)phosphonic acid]; conditions: 2200 nM; in DMSO
Procedure: as §1

[12] = compound: O=S(=O)(Cl)C(F)(F)C(F)(F)C(F)(F)C(F)(F)C(F)(F)C(F)(F)C(F)(F)C(F)(F)F [Perfluoro-1-octanesulfonyl chloride]; conditions: 2200 nM; in DMSO
Procedure: as §1

[13] = compound: OCC(F)(F)C(F)(F)C(F)(F)C(F)(F)C(F)(F)C(F)(F)C(F)(F)C(F)(F)C(F)(F)C(F)(F)C(F)(F)F [11:1 Fluorotelomer alcohol]; conditions: in DMSO
Procedure: as §1

[14] = compound: OCCC(F)(F)C(F)(F)C(F)(F)C(F)(F)C(F)(F)C(F)(F)C(F)(F)C(F)(F)F [8:2 Fluorotelomer alcohol]; conditions: 2200 nM; in DMSO
Procedure: as §1

Row | Test System | level (log10) [1] | level (log10) [2] | level (log10) ([3]; 740 nM) | level (log10) ([3]; 2200 nM) | level (log10) ([3]; 6700 nM) | level (log10) ([3]; 20000 nM) | level (log10) ([4]; 740 nM) | level (log10) ([4]; 2200 nM) | level (log10) ([4]; 6700 nM) | level (log10) ([4]; 20000 nM) | level (log10) [5] | level (log10) (Perfluorooctanamide) | level (log10) (Perfluoroundecanoic acid; 740 nM) | level (log10) (Perfluoroundecanoic acid; 2200 nM) | level (log10) [6] | level (log10) (Perfluorobutanoic acid) | level (log10) (Perfluoropropanoic acid) | level (log10) [7] | level (log10) [8] | level (log10) [9] | level (log10) ([10]; 2200 nM) | level (log10) ([10]; 6700 nM) | level (log10) ([10]; 20000 nM) | level (log10) ([10]; 60000 nM) | level (log10) [11] | level (log10) [12] | level (log10) ([13]; 370 nM) | level (log10) ([13]; 1100 nM) | level (log10) ([13]; 3300 nM) | level (log10) ([13]; 10000 nM) | level (log10) [14]
1 | 4H:VEGFR2 | 0.0195 ± 0.067 | 0.012 ± 0.024 | 0.038 ± 0.021 | 0.0015 ± 0.0064 | -0.0015 ± 0.026 | 0.0225 ± 0.06 | -0.0015 ± 0.023 | 0.002 ± 0.021 | 0.0055 ± 0.0092 | 0.06 ± 0.024 | 0.03 ± 0.04 | 0.003 ± 0.027 | -0.029 ± 0.03 | -0.021 ± 0.014 | 0.036 ± 0.045 | 0.002 ± 0.014 | 0.0145 ± 0.042 | -0.0545 ± 0.029 | -0.0285 ± 0.059 | 0.0075 ± 0.05 | 0.0005 ± 0.022 | -0.0145 ± 0.019 | 0.004 ± 0.05 | 0.01 ± 0.045 | -0.014 ± 0.014 | 0.008 ± 0.045 | 0.006 ± 0.027 | -0.027 ± 0.023 | -0.0135 ± 0.033 | -0.008 ± 0.048 | 0.013 ± 0.033
2 | MyoF:Collagen III | -0.002 ± 0.018 | -0.0015 ± 0.016 | 0 ± 0.0071 | 0.0035 ± 0.005 | 0.0145 ± 0.0021 | -0.0055 ± 0.03 | -0.005 ± 0.0042 | -0.0295 ± 0.0092 | -0.0365 ± 0.005 | -0.311 ± 0.093 | 0.003 ± 0.0042 | -0.005 ± 0.031 | -0.009 ± 0.0028 | -0.0175 ± 0.005 | -0.0095 ± 0.011 | -0.0095 ± 0.0092 | 0.0265 ± 0.0064 | -0.0035 ± 0.026 | 0.0005 ± 0.012 | -0.006 ± 0.0014 | 0.003 ± 0.025 | -0.0055 ± 0.022 | 0.003 ± 0.0071 | 0.0075 ± 0.005 | -0.006 ± 0.014 | -0.018 ± 0.02 | -0.0035 ± 0.0021 | 0.011 ± 0.0085 | -0.0005 ± 0.00071 | -0.001 ± 0.0071 | -0.0045 ± 0.0078
3 | BF4T:CD90 | 0.0145 ± 0.0092 | -0.0025 ± 0.0021 | -0.009 ± 0.013 | -0.0225 ± 0.0092 | -0.0245 ± 0.021 | -0.0345 ± 0.0021 | -0.001 ± 0.011 | -0.003 ± 0.0042 | 0.001 ± 0.016 | -0.0025 ± 0.0021 | 0.0155 ± 0.0021 | -0.0025 ± 0.005 | -0.0025 ± 0.0035 | -0.011 | -0.051 ± 0.0071 | 0.007 ± 0.0071 | -0.0025 ± 0.011 | -0.0075 ± 0.0064 | 0.0065 ± 0.026 | -0.006 ± 0.033 | 0.0065 ± 0.032 | -0.0005 ± 0.013 | -0.0105 ± 0.0035 | 0.018 ± 0.0028 | 0.0165 ± 0.028 | 0.0085 ± 0.018 | 0.0015 ± 0.019 | 0.0025 ± 0.011 | -0.0025 ± 0.011 | 0.002 ± 0.0042 | -0.0045 ± 0.018
4 | BE3C:SRB | -0.011 ± 0.0057 | -0.0005 ± 0.015 | -0.001 ± 0.0028 | -0.006 ± 0.0042 | -0.0035 ± 0.0021 | 0.0005 ± 0.00071 | 0.002 ± 0.0028 | 0.004 | 0.0095 ± 0.00071 | 0.0085 ± 0.0035 | 0.0135 ± 0.0064 | 0.003 ± 0.0057 | 0.009 ± 0.0014 | 0.0005 ± 0.00071 | -0.0015 ± 0.0021 | 0.006 ± 0.021 | -0.0045 ± 0.00071 | 0.0025 ± 0.016 | -0.0025 ± 0.0035 | 0.013 ± 0.0057 | 0.0065 ± 0.026 | -0.0005 ± 0.005 | -0.002 ± 0.0014 | 0.013 ± 0.021 | 0.005 ± 0.0071 | 0.0115 ± 0.023 | -0.014 ± 0.0057 | -0.03 ± 0.014 | -0.0485 ± 0.005 | -0.0235 ± 0.0064 | 0.0045 ± 0.015
5 | 3C:CD87/uPAR | 0.0025 ± 0.0035 | 0.0265 ± 0.0064 | 0.0065 ± 0.00071 | -0.0165 ± 0.0035 | 0.0105 ± 0.019 | 0.0225 ± 0.016 | -0.0115 ± 0.022 | -0.0055 ± 0.00071 | -0.0165 ± 0.018 | -0.0175 ± 0.0078 | 0.0135 ± 0.0035 | 0.0055 ± 0.0035 | 0.0015 ± 0.0021 | -0.003 ± 0.018 | -0.007 ± 0.0028 | -0.011 ± 0.0071 | -0.0055 ± 0.012 | 0.0165 ± 0.026 | 0.0175 ± 0.025 | 0.017 ± 0.0085 | 0.0435 ± 0.036 | 0.025 ± 0.0071 | 0.033 ± 0.038 | 0.0465 ± 0.042 | 0.0475 ± 0.063 | 0.0065 ± 0.042 | 0.0165 ± 0.039 | -0.024 ± 0.023 | -0.013 ± 0.024 | -0.003 ± 0.011 | 0.007 ± 0.011
